Assay results: the supplement of paper PMC10398353
Where a name gives a salt, the structure may show the parent alone. ± gives the standard deviation of the averaged measurements. The list shows a part of the results. Single values of this set are uncertain.

System: Salmonella enterica serovar Typhimurium ST313 D23580
Test: normalized bacterial growth (OD600 20 h minus 0 h, interquartile-mean normalized) (fraction of plate interquartile mean); higher = more bacterial growth (less inhibition)
Conditions: LPM (pH 5.8, low phosphate, low Mg2+), concentration: 10 µM, temperature: 37 °C

Row | Structure (SMILES) | normalized bacterial growth
1 | CN1CCc2cc(O)cc3c2[C@H]1Cc1ccc(O)c(O)c1-3 ["R(-)-2,10,11-Trihydroxyaporphine hybrobromide"] | 0.965
2 | N[C@@H]1C[C@H]1c1ccccc1 [Tranylcypromine hydrochloride] | 0.976 ± 0.076
3 | CCCN(CCC)[C@@H]1CCc2c(F)ccc(O)c2C1 [R(+)-UH-301 hydrochloride] | 0.901
4 | COc1cc(C(=O)OC2CC3CCC(C2)N3C)ccc1O (stereo not given) | 1.07
5 | COc1cc(C(=O)OC2CC3CCC(C2)N3C)ccc1O (stereo not given) [Fillalbin] | 0.991
6 | CNc1ccccc1C(=O)O | 1.21
7 | CN1C[C@H](C(=O)N[C@]2(C)O[C@@]3(O)[C@@H]4CCCN4C(=O)[C@H](Cc4ccccc4)N3C2=O)C=C2c3cccc4[nH]cc(c34)C[C@H]21 | 0.875
8 | [O-][n+]1ccccc1[S-].[O-][n+]1ccccc1[S-].[Zn+2] | 0.118
9 | O[C@H]1[C@H](O)[C@@H](O)CN2CC[C@H](O)[C@H]12 | 1.09
10 | CCC1=C[C@@H]2CN3CCc4c([nH]c5ccccc45)[C@@](C(=O)OC)(C2)[C@@H]13 | 0.941
11 | O=C(O)[C@@H]1[C@H](C(=O)O)[C@H]2CC[C@@H]1O2 [Endothall] | 1.32
12 | CCC(C)C(=O)O[C@@H]1C[C@@]2(C)[C@H](c3ccoc3)OC(=O)CC23OC2(C)O[C@]14[C@]1(C)[C@@H](CC(=O)OC)C5(C)CC1(O)[C@](O)(C5OC(=O)C1(C)OC1C)[C@@H](OC(C)=O)[C@]34O2 (stereo not given in full) | 0.697
13 | C[C@H]1CC[C@@H]2[C@@H](C)[C@H]3[C@H](C[C@H]4[C@@H]5CC[C@H]6C[C@@H](O)CC[C@]6(C)[C@H]5CC[C@]34C)N2C1 | 1.26
14 | ClC(Cl)=C(c1ccc(Cl)cc1)c1ccc(Cl)cc1 | 1.08
15 | CCOC(=O)C1C(C=C(C)C)C1(C)C (stereo not given) | 1.01
16 | COC1=C[C@@H]2[C@@H]3Cc4ccc(OC)c(O)c4[C@]2(CCN3C)CC1=O | 1.02
17 | O=C1C=CC(=O)c2ccccc21 | 0.838
18 | CC(=O)[C@H]1CC[C@H]2[C@@H]3CC[C@H]4C[C@](C)(O)CC[C@]4(C)[C@H]3CC[C@]12C [Ganaxolone] | 0.977
19 | CN(C)CCc1ccc(O)cc1 | 1.07
20 | COc1cc(CC(C)N)c(OC)cc1I (stereo not given) [()-DOI hydrochloride] | 1.04
21 | CO[C@@H]1[C@H](O)C[C@@H](O[C@@H]2C[C@H](Oc3cc4cc5c(c(O)c4c(O)c3C)C(=O)[C@@H](O[C@H]3C[C@@H](O[C@H]4C[C@@H](O[C@H]6C[C@](C)(O)[C@@H](OC(C)=O)[C@H](C)O6)[C@H](O)[C@@H](C)O4)[C@H](O)[C@@H](C)O3)[C@H]([C@H](OC)C(=O)[C@@H](O)[C@@H](C)O)C5)O[C@H](C)[C@@H]2OC(C)=O)O[C@@H]1C | 0.886
22 | C[C@@H]1O[C@@H](O[C@H]2CC[C@]3(C=O)[C@H]4CC[C@]5(C)[C@@H](C6=CC(=O)OC6)CC[C@]5(O)[C@@H]4CC[C@]3(O)C2)[C@H](O)[C@H](O)[C@H]1O | 1.02
23 | CN1[C@@H]2C[C@@H](OC(=O)[C@H](CO)c3ccccc3)C[C@H]1[C@@H]1O[C@@H]12 | 1.16
24 | CN1[C@@H]2C[C@@H](OC(=O)[C@H](CO)c3ccccc3)C[C@H]1[C@@H]1O[C@@H]12 [(-)-Scopolamine hydrobromide] | 0.846
25 | CN1[C@@H]2C[C@@H](OC(=O)[C@H](CO)c3ccccc3)C[C@H]1[C@@H]1O[C@@H]12 [Scopolamine hydrochloride] | 0.542

Row | Structure (SMILES) | normalized bacterial growth
26 | CC1(C)C2CC(=O)[C@]3(C)C(CC[C@@]4(C)[C@H](c5ccoc5)OC(=O)C5OC543)[C@@]2(C)[C@@H](O)C[C@H]1O (stereo not given in full) | 0.802
27 | c1cc2c(cc1[C@H]1OC[C@H]3[C@@H]1CO[C@H]3c1ccc3c(c1)OCO3)OCO2 | 1.2
28 | N[C@H](C(=O)O)c1cc(O)no1 [()-Ibotenic acid] | 1.04
29 | C[C@]12CC[C@@H](O)C[C@H]1CC[C@@H]1[C@@H]2CC[C@]2(C)C(=O)CC[C@@H]12 [3-alpha-Hydroxy-5-beta-androstan-17-one] | 0.777
30 | CC(N)c1cccc(Cl)c1Cl (stereo not drawn) ["()-2,3-Dichloro-alpha-methylbenzylamine hydrochloride"] | 0.657
31 | COc1cc2c(cc1OC)[C@@H]1C(=O)c3ccc(OC)c(CC=C(C)C)c3O[C@@H]1CO2 | 0.664
32 | C#CCN(C)[C@H](C)Cc1ccccc1 [Selegiline hydrochloride] | 0.6
33 | C#CCN(C)[C@H](C)Cc1ccccc1 | 1.15
34 | CN(C)C(=O)Oc1ccc[n+](C)c1 [Pyridostigmine bromide] | 1.15
35 | C[C@@H]1O[C@@H](O[C@@H]2C=C3CC[C@@H]4[C@H](CC[C@]5(C)[C@@H](c6ccc(=O)oc6)CC[C@]45O)[C@@]3(C)CC2)[C@H](O)[C@H](O)[C@H]1O [Proscillaridin A] | 0.974
36 | C=CCN1CC[C@]23CCCC[C@H]2[C@H]1Cc1ccc(O)cc13 [Levallorphan tartrate] | 1.11
37 | COc1ccc(/C=C/c2cc(O)cc(O)c2)cc1 | 0.908
38 | CC[C@H]1CN2CC[C@H]1C[C@H]2[C@H](O)c1ccnc2ccc(OC)cc12 [Hydroquinine hydrobromide hydrate] | 1.15
39 | CC(=O)[O][Hg][c]1ccccc1 | 0.0799
40 | O=c1[nH]c2ccccc2n1C1CCN(CCCC(c2ccc(F)cc2)c2ccc(F)cc2)CC1 [Pimozide] | 0.629
41 | CCCN1CC[C@@H]2c3cc(O)ccc3CC[C@@H]21 (racemic) [cis(+/-)-8-OH-PBZI hydrobromide] | 0.94
42 | C/C=C(\C)C(=O)O[C@H]1C[C@@H](OC(C)=O)[C@@]2(C(=O)OC)CO[C@H]3[C@@H](O)[C@@](C)([C@]45O[C@@]4(C)[C@H]4C[C@@H]5O[C@@H]5OC=C[C@@]54O)[C@H]4[C@]1(CO[C@]4(O)C(=O)OC)[C@@H]32 | 1.08
43 | Cc1cc2c(C(C)C)c(O)c(O)c(C=O)c2c(O)c1-c1c(C)cc2c(C(C)C)c(O)c(O)c(C=O)c2c1O | 1.47
44 | CC(=O)Nc1cc([As](=O)(O)O)ccc1O | 0.446
45 | CC1=C2C[C@H]3[C@@H](CC=C4C[C@@H](O)CC[C@@]43C)[C@@H]2CC[C@]12O[C@@H]1C[C@H](C)CN[C@H]1[C@H]2C | 1.06
46 | COc1cccc2c1cc([N+](=O)[O-])c1c(C(=O)O)cc3c(c12)OCO3 | 0.569
47 | CC(=O)NCCc1c[nH]c2ccccc12 [N-Acetyltryptamine] | 0.484
48 | COc1cc2occc2c2oc(=O)ccc12 | 1.1
49 | NCCc1c[nH]c2ccc(C(N)=O)cc12 [5-Carboxamidotryptamine maleate] | 0.958
50 | COP(=S)(OC)Oc1cc(Cl)c(Cl)cc1Cl | 1.03

An excerpt of these results, as a markdown table:

| Row | Structure (SMILES) | normalized bacterial growth |
| --- | --- | --- |
| 45 | CC1=C2C[C@H]3[C@@H](CC=C4C[C@@H](O)CC[C@@]43C)[C@@H]2CC[C@]12O[C@@H]1C[C@H](C)CN[C@H]1[C@H]2C | 1.06 |
| 46 | COc1cccc2c1cc([N+](=O)[O-])c1c(C(=O)O)cc3c(c12)OCO3 | 0.569 |
| 47 | CC(=O)NCCc1c[nH]c2ccccc12 [N-Acetyltryptamine] | 0.484 |
| 48 | COc1cc2occc2c2oc(=O)ccc12 | 1.1 |

Remaining list, next part

Row | Structure (SMILES) | normalized bacterial growth
51 | CCCCCCCCC(=O)NCc1ccc(O)c(OC)c1 | 0.736
52 | NCCC(O)C(=O)NC1CC(N)C(OC2OC(CN)C(O)[C@H](O)[C@@H]2N)[C@H](OC2O[C@H](CO)[C@@H](O)[C@@H]2O)[C@@H]1O (stereo not given in full) [Butirosin disulfate salt] | 1.2
53 | CC1(C)[C@@H](O)C[C@H]2[C@](C)(O)[C@@H]3CC[C@@H]4[C@@H](O)[C@@]3(C[C@@H](O)[C@@]21O)C[C@@]4(C)O | 1.25
54 | Nc1ccc([As](=O)(O)O)cc1 | 0.93
55 | CC(C)c1ccc2c(c1O)CC[C@H]1C3=C(CC[C@]21C)C(=O)OC3 | 0.994
56 | COC1=C[C@]23CCCN2CCc2cc4c(cc2[C@@H]3[C@@H]1O)OCO4 | 1.05
57 | O=[N+]([O-])c1ccc(O)c([N+](=O)[O-])c1 | 0.554
58 | CC1OC(OC2/C=C/C=C/C=C/C=C/CC/C=C/C=C/[C@H](C)[C@@H](O)[C@@H](C)[C@H](C)OC(=O)CC(O)CC(O)CC(O)CCC(O)C(O)C[C@]3(O)CC(O)C(C(=O)O)C(C2)O3)C(O)C(N)C1O (stereo not given in full) [Nystatine] | 1.5
59 | NCCCNCCSP(=O)(O)O [Amifostine] | 0.98
60 | CCn1cnc2c(Nc3cccc(Cl)c3)nc(N[C@@H]3CCCC[C@@H]3N)nc21 | 0.809
61 | Clc1ccc(N2CCN(Cc3c[nH]c4ncccc34)CC2)cc1 ["L-745,870 hydrochloride"] | 1.05
62 | N#CC(C#N)=Cc1ccc([N+](=O)[O-])c(O)c1 [Tyrphostin AG 126] | 1.19
63 | O=S1(=O)N(CCN2CC=C(c3c[nH]c4cc(F)ccc34)CC2)c2cccc3c2N1CCC3 | 0.792
64 | CN1CCC2=C[C@H](O)[C@H]3OC(=O)c4cc5c(cc4[C@H]3[C@@H]21)OCO5 [Hippeastrine hydrobromide] | 0.693
65 | c1ccc2c(c1)[nH]c1cnccc12 | 1.01
66 | CC(=O)N[C@H]1[C@@H](O[C@@H]2O[C@H](C[C@@H](O)[C@@H]3O[C@H](n4ccc(=O)[nH]c4=O)[C@@H](O)[C@H]3O)[C@H](O)[C@H](O)[C@H]2NC(=O)/C=C/CCCCCCCCCCC(C)C)O[C@H](CO)[C@@H](O)[C@@H]1O | 1.71
67 | O=C(NC(=O)c1ccccc1Cl)Nc1ccc(OC(F)(F)F)cc1 | 0.966
68 | NCC(CP(=O)(O)O)c1ccc(Cl)cc1 (stereo not given) [Phaclofen] | 0.868
69 | CN1[C@@H]2CC[C@H]1C[C@@H](OC(c1ccccc1)c1ccccc1N)C2 (stereo not given in full) [Aminobenztropine] | 1.06
70 | CN1Cc2c(ccc3c2OCO3)C2C(O)Cc3cc4c(cc3C21)OCO4 (stereo not given) | 1.17
71 | c1ccc(C2CC2)c(OCC2=NCCN2)c1 [Cirazoline hydrochloride] | 1.16
72 | C[C@]12CCC(=O)C(O)=C1CC[C@@H]1[C@@H]2CC[C@]2(C)C(=O)CC[C@@H]12 | 0.913
73 | CNC(C)(C)Cc1ccccc1 | 1.07
74 | CNC(C)(C)Cc1ccccc1 [Mephentermine hemisulfate] | 0.946
75 | CNC(Cc1c[nH]c2ccccc12)C(=O)O (stereo not given) | 0.998
